This is one part of the list. Single values are uncertain here, since repeats match poorly.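 The human kidney-derived cells carry a stably integrated construct of eight TEAD-binding elements driving luciferase, read by luminescence in a drug-repurposing library screen. A compound counts as a hit when its signal is more than five robust Z scores above the plate mean.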

The test concerns HEK293A TEAD-LUC reporter. Description: TEAD-luciferase reporter activity (YAP activation), robust Z score vs plate; higher = stronger YAP/TEAD activation. To be noted: 24 h. For orientation: A reporter such as luciferase makes a cellular process visible.

Turning to `NCC(=O)N1Cc2ccccc2CC2(CCCCN2CC2CCCC2)C1` (stereo not given), the TEAD-luciferase reporter activity by setting is: (compound concentration: 200 nM) inactive: -0.0449; (compound concentration: 10 uM) inactive: -0.121.
Turning to `COc1cc(C(C)=O)ccc1OCCCN1CCC(C(O)(c2ccc(F)cc2)c2ccc(F)cc2)CC1`, the TEAD-luciferase reporter activity was inactive: -0.691 (compound concentration: 200 nM), inactive: -1.2 (compound concentration: 2 uM) and inactive: 0.412 (compound concentration: 10 uM).
For `CC(C)=CCc1c(O)cc(O)c2c1OC(c1ccc(O)cc1)CC2=O` (stereo not given) [8-Prenylnaringenin] the same measures were inactive: -3.08, inactive: -1.71 and inactive: 0.0409.
Taken in the same sequence, the figures for `Nc1n[n+]([O-])c2ccccc2[n+]1[O-]` [Tirapazamine] were inactive: -1.37, inactive: -0.516 and inactive: 1.34.
Taken in the same sequence, the figures for `COc1cc(S(C)=O)sc1-c1nc2ccncc2[nH]1` (stereo not given) [Vasotrope] were inactive: 2.91, inactive: -0.902 and inactive: 1.3.
As for `O=C(O)c1ccc(Nc2ncc3c(n2)-c2ccc(Cl)cc2C(c2c(F)cccc2F)=NC3)cc1`, the TEAD-luciferase reporter activity by setting is: (compound concentration: 200 nM) inactive: -1.36; (compound concentration: 2 uM) inactive: 1.63; (compound concentration: 10 uM) inactive: -0.142.
For `CCCCCCCCCCCCCC(=O)OCC(COP(=O)([O-])OCC[N+](C)(C)C)OC(=O)CCCCCCCCCCCCC` (stereo not given) the same measures were inactive: -1.65, inactive: -1.86 and inactive: -1.04.
With `COCCOc1c(OC)cc(Cc2cnc(N)nc2N)cc1OC` [Tetroxoprim], the TEAD-luciferase reporter activity is, setting by setting: (compound concentration: 200 nM) inactive: 0.407; (compound concentration: 10 uM) inactive: 0.404.
Regarding `Cc1ccc(-c2nc(CCCC[C@H]3CO[C@@](C)(C(=O)O)OC3)c(C)o2)cc1`, the TEAD-luciferase reporter activity reads like this: (compound concentration: 200 nM) inactive: -1.29; (compound concentration: 2 uM) inactive: -1.21; (compound concentration: 10 uM) inactive: 0.528.
For `CC(C)(Oc1ccc(Cl)cc1)C(=O)OCCCOC(=O)c1cccnc1` the same measures were inactive: 0.405, inactive: 0.579 and inactive: 0.775.
With `CO[C@@]12[C@H](COC(N)=O)C3=C(C(=O)C(C)=C(N)C3=O)N1C[C@@H]1N[C@@H]12` [Mitomycin C], the TEAD-luciferase reporter activity (compound concentration: 2 uM) is inactive: -1.2.
For the compound `CO[C@@]12[C@H](COC(N)=O)C3=C(C(=O)C(C)=C(N)C3=O)N1C[C@@H]1N[C@@H]12` [Mitomycin C from Streptomyces caespitosus], the TEAD-luciferase reporter activity (compound concentration: 200 nM) was inactive: -2.08 and the TEAD-luciferase reporter activity (compound concentration: 10 uM) was inactive: -0.521.
For `COc1ccc(/C=C\c2cc(OC)c(OC)c(OC)c2)cc1NC(=O)[C@@H](N)CO`, the TEAD-luciferase reporter activity is inactive: 4.07 (compound concentration: 200 nM), active: 5.6 (compound concentration: 2 uM) and inactive: 3.37 (compound concentration: 10 uM).
For `CS(=O)(=O)N(CCO)c1c(Cl)c(Cl)cc2[nH]c(=O)c(=O)[nH]c12` the same measures were inactive: -0.252, inactive: -0.11 and active: 6.39.
Taken in the same sequence, the figures for `COc1ccc2[nH]c(C)c(C(=O)CN3CCN(c4ccccc4OC)CC3)c2c1` were inactive: -0.754, inactive: -0.61 and inactive: 3.35.
On to `COc1ccc(CNc2cn[nH]c(=O)c2Cl)cc1OC`, for which the TEAD-luciferase reporter activity was inactive: 1.94 (compound concentration: 200 nM), inactive: -0.211 (compound concentration: 2 uM) and inactive: 2.44 (compound concentration: 10 uM).
Taken in the same sequence, the figures for `CCOc1cc2cc(CO)c(CO)c(-c3ccnc(-n4nc(-c5cccnc5)c5ccccc5c4=O)c3)c2cc1OCC` were inactive: -0.577, inactive: -0.919 and inactive: 0.473.
Take `NCC(=O)N1CCCC2(Cc3ccccc3CN2C(=O)c2ccccc2)C1` (stereo not given): the TEAD-luciferase reporter activity runs as follows: (compound concentration: 200 nM) inactive: 2.37; (compound concentration: 10 uM) inactive: 0.037.
With `Cc1cc(C(=O)NNCc2ccccc2)no1` [Isocarboxazid], the TEAD-luciferase reporter activity is inactive: -0.832 (compound concentration: 200 nM), inactive: 0.23 (compound concentration: 2 uM) and inactive: -0.211 (compound concentration: 10 uM).
Taken in the same sequence, the figures for `CC(C)(C)OC(=O)N1CCC(CNC(=O)c2cnc(Nc3cccc(Cl)c3)nc2C(F)(F)F)CC1` were inactive: -1.39, inactive: -0.394 and inactive: 1.95.
Taken in the same sequence, the figures for `O=C1NCCN1CCN1CCC(c2cn(-c3ccc(F)cc3)c3ccc(Cl)cc23)CC1` [sertindole] were active: 8.27, inactive: -1.08 and inactive: 1.6.
For `OCc1cc(C(O)CNCCCCCCOCCCCc2ccccc2)ccc1O` (stereo not given) [Salmeterol], the TEAD-luciferase reporter activity by setting is: (compound concentration: 200 nM) inactive: -0.426; (compound concentration: 10 uM) inactive: 0.4.
Consider `OCc1cc(C(O)CNCCCCCCOCCCCc2ccccc2)ccc1O` [(S)-salmeterol xinafrate], for which the TEAD-luciferase reporter activity (compound concentration: 2 uM) was inactive: -0.615.
With `O=C1CCCCCN1C1CCN(Cc2ccc(F)cc2)CC1`, the TEAD-luciferase reporter activity was inactive: -3.26 (compound concentration: 200 nM) and inactive: 1.25 (compound concentration: 10 uM).
On to `O=C(O)/C=C/c1nc(CSc2c(Cl)cccc2Cl)ccc1OCCc1ccccc1` [Ticolubant], for which the TEAD-luciferase reporter activity (compound concentration: 200 nM) is inactive: 0.196, the TEAD-luciferase reporter activity (compound concentration: 2 uM) was inactive: -0.456 and the TEAD-luciferase reporter activity (compound concentration: 10 uM) was inactive: 2.55.
